Experimental data published in patent US10016372B2 (priority 2016, dated 2018).

Assay: Projected steady-state pharmacokinetics, once-weekly transdermal vs 10 mg once-daily oral donepezil
Settings: 10 mg oral once daily

## COc1cc2c(cc1OC)C(=O)C(CC1CCN(Cc3ccccc3)CC1)C2 (stereo not shown) [oral donepezil, donepezil]
  Geometric mean Cmin: 30.8 ng/mL
